# Experimental data: the supplement of paper PMC11348887
# Counter-ions that a name gives are not always drawn. The list shows a part of the results. Most values lie at the level of the controls, where differences are scatter.
# Assays:
# Settings in all cases: 5 µM; treatment: days 7-14 after plating, readout day 21
# [1] = test system: hPSC-derived cortical neurons (WA09); assay: nucleus area z-score vs screen plate; higher = larger nuclei (more mature)
# [2] = test system: hPSC-derived cortical neurons (WA09); assay: total neurite length per nucleus (MAP2) z-score; higher = more neurite growth
# [3] = test system: hPSC-derived cortical neurons (WA09); assay: nucleus roundness z-score vs screen plate; higher = rounder nuclei (more mature)
# [4] = test system: hPSC-derived cortical neurons (WA09); assay: KCl-induced FOS+/EGR-1+ double-positive nuclei fraction z-score (KCl minus unstimulated); higher = stronger activity-induced IEG response
Compound,nucleus area z-score [1],total neurite length per nucleus (z-score) [2],nucleus roundness z-score [3],KCl-induced FOS+/EGR-1+ double-positive nuclei fraction z-score [4]
CN(N=O)C(=O)NC1C(O)OC(CO)C(O)C1O (centres undefined) [Streptozotocin (STZ)],-0.0252,0.519,0.633,0.513
Cc1cnc(-c2ccccc2C(C)C)nc1NCc1ccc(-n2ccnn2)cc1,-0.0196,-0.529,-0.285,-0.332
OC(CN1CCN(c2cccc(Cl)c2)CC1)C(c1ccccc1)c1ccccc1 (centres undefined),-0.496,0.389,1.25,0.606
NCCOCCOCCNC(=O)Cc1ccc(Nc2nc(NCc3ccc(F)cc3)nc(NCC3CCCCC3)n2)cc1 [AP-III-a4 (ENOblock)],-0.102,-2.91,-4.6,-1.09
CN1CCN(C2=Nc3cc(Cl)ccc3Nc3ccccc32)CC1 [Clozapine],0.798,0.577,1.06,1.23
CCN(CC)CCOCCOC(=O)C1(c2ccccc2)CCCC1 [Pentoxyverine Citrate],-0.766,-0.188,-1.06,-0.531
C#Cc1cccc(Nc2ncnc3cc4c(cc23)OCCOCCOCCO4)c1 [Icotinib],-0.0216,0.512,0.708,0.108
O=C(N/N=C/c1cc(O)c(O)cc1O)c1cc2ccccc2cc1O [Dyngo-4a],0.205,-0.49,0.453,-0.498
COC(=O)Nc1ccc(-c2nc(N3CCOCC3)c3cnn(C4CCN(C(=O)OC)CC4)c3n2)cc1,-0.335,1.12,-0.781,-0.675
OC[C@H]1O[C@@H](c2ccc(Cl)c(Cc3ccc(O[C@H]4CCOC4)cc3)c2)[C@H](O)[C@@H](O)[C@@H]1O,-0.247,-0.0958,0.126,0.902
Nc1c(CC(=O)O)cccc1C(=O)c1ccccc1 [Amfenac Sodium Monohydrate],-0.00289,1.24,1.99,0.732
COc1cc2nccc(Oc3ccc(NC(=O)C4(C(=O)Nc5ccc(F)cc5)CC4)cc3)c2cc1OC,0.889,1.29,0.919,1.25
NCCCCC(NC(=O)C1CCCN1C(=O)C1CSSCC(N)C(=O)NC(Cc2ccc(O)cc2)C(=O)NC(Cc2ccccc2)C(=O)NC(CCC(N)=O)C(=O)NC(CC(N)=O)C(=O)N1)C(=O)NCC(N)=O (centres undefined) [Lypressin Acetate],1.08,-0.959,-0.0896,1.37
COc1ccc(C(=O)C2CCN(CC(=O)N(Cc3nc4c(c(=O)[nH]3)COCC4)CC3CC3)CC2)cc1,-3.08,-2.74,-0.327,0.0822
CCN(CC)CCOc1ccc(C(=C(Cl)c2ccccc2)c2ccccc2)cc1 [Clomifene citrate],-4.48,-3.51,-4.22,-1.34
Cc1ccc(NCCCc2ccccc2)c(N)c1,-0.949,0.169,2.22,0.572
CC1CCc2c(N3CCC(O)CC3)c(F)cc3c(=O)c(C(=O)O)cn1c23 (centres undefined) [Nadifloxacin],0.931,-1.3,-0.371,-0.489
Cc1ccc(S(=O)(=O)NC(=O)NN2CC3CCCC3C2)cc1 (centres undefined) [Gliclazide],0.976,0.795,0.548,0.799
COc1ccc(C[C@H](N)C(=O)N[C@H]2[C@@H](O)[C@H](n3cnc4c(N(C)C)ncnc43)O[C@@H]2CO)cc1 [Puromycin 2HCl],-16.3,-6.24,-9.59,-0.979

# Structural class, the compounds so far with a carbonyl joined to an NH by a bond outside any ring
Compound,nucleus area z-score [1],total neurite length per nucleus (z-score) [2],nucleus roundness z-score [3],KCl-induced FOS+/EGR-1+ double-positive nuclei fraction z-score [4]
CN(N=O)C(=O)NC1C(O)OC(CO)C(O)C1O (centres undefined) [Streptozotocin (STZ)],-0.0252,0.519,0.633,0.513
NCCOCCOCCNC(=O)Cc1ccc(Nc2nc(NCc3ccc(F)cc3)nc(NCC3CCCCC3)n2)cc1 [AP-III-a4 (ENOblock)],-0.102,-2.91,-4.6,-1.09
O=C(N/N=C/c1cc(O)c(O)cc1O)c1cc2ccccc2cc1O [Dyngo-4a],0.205,-0.49,0.453,-0.498
COC(=O)Nc1ccc(-c2nc(N3CCOCC3)c3cnn(C4CCN(C(=O)OC)CC4)c3n2)cc1,-0.335,1.12,-0.781,-0.675
COc1cc2nccc(Oc3ccc(NC(=O)C4(C(=O)Nc5ccc(F)cc5)CC4)cc3)c2cc1OC,0.889,1.29,0.919,1.25
NCCCCC(NC(=O)C1CCCN1C(=O)C1CSSCC(N)C(=O)NC(Cc2ccc(O)cc2)C(=O)NC(Cc2ccccc2)C(=O)NC(CCC(N)=O)C(=O)NC(CC(N)=O)C(=O)N1)C(=O)NCC(N)=O (centres undefined) [Lypressin Acetate],1.08,-0.959,-0.0896,1.37
Cc1ccc(S(=O)(=O)NC(=O)NN2CC3CCCC3C2)cc1 (centres undefined) [Gliclazide],0.976,0.795,0.548,0.799
COc1ccc(C[C@H](N)C(=O)N[C@H]2[C@@H](O)[C@H](n3cnc4c(N(C)C)ncnc43)O[C@@H]2CO)cc1 [Puromycin 2HCl],-16.3,-6.24,-9.59,-0.979

# Later entries

Compound,nucleus area z-score [1],total neurite length per nucleus (z-score) [2],nucleus roundness z-score [3],KCl-induced FOS+/EGR-1+ double-positive nuclei fraction z-score [4]
CC(C)(C)NC[C@H](O)COc1nsnc1N1CCOCC1 [Timolol Maleate],0.623,-0.117,0.206,-0.726
COc1cc(F)c(C(C)C)cc1-c1ccc(C(F)(F)F)cc1CN1C(=O)O[C@H](c2cc(C(F)(F)F)cc(C(F)(F)F)c2)[C@@H]1C [Anacetrapib (MK-0859)],-0.854,-0.676,-0.737,-0.39
CNc1cccc(CCOc2ccc3c(c2)CN(CC(F)(F)F)C(=O)[C@H](CC(=O)O)C3)n1,2.77,-0.296,-0.568,-0.0294
CC(=O)S[C@@H]1CC2=CC(=O)CC[C@]2(C)[C@H]2CC[C@@]3(C)[C@@H](CC[C@@]34CCC(=O)O4)[C@H]12 [Spironolactone],0.221,0.185,0.665,1.78
C[C@H]1C[C@H]2[C@@H]3CCC4=CC(=O)C=C[C@]4(C)[C@@]3(F)[C@@H](O)C[C@]2(C)[C@@]1(O)C(=O)CO [Betamethasone],1.49,-0.65,-0.0958,-0.227
CCCCCCCCC/C(=C\C1=C(C)C(=O)C(OC)=C(OC)C1=O)C(=O)O,1.13,1.74,0.583,2.34
CC(=O)Nc1ncc([N+](=O)[O-])s1 [Nithiamide],0.145,0.0629,-0.257,0.238
CCOC(=O)c1ccc(NC2CCCCC2)c(N)c1 [Ferrostatin-1 (Fer-1)],0.529,0.162,0.705,0.587
C/C(O)=C(\C#N)C(=O)Nc1ccc(C(F)(F)F)cc1 [Teriflunomide],0.432,-0.244,-0.569,0.346
Clc1ccc(COC(Cn2ccnc2)c2ccc(Cl)cc2Cl)c(Cl)c1 (centres undefined) [Miconazole Nitrate],-1.56,0.0296,0.298,1.17
COC(=O)/C=C/C(=O)OC [Dimethyl Fumarate],0.446,0.973,0.369,4.88
CCN(CCO)CCCC(C)Nc1ccnc2cc(Cl)ccc12 (centres undefined) [Hydroxychloroquine Sulfate],-0.503,-0.723,0.588,-0.13
COC1=CC(c2cc3ccccc3[nH]2)=N/C1=C\c1[nH]c(C)cc1C [Obatoclax Mesylate (GX15-070)],-8.56,-2.71,-8.57,-0.356
CCN[C@H]1CN(CCCOC)S(=O)(=O)c2sc(S(N)(=O)=O)cc21 [Brinzolamide],0.567,-0.194,0.581,0.439
CN1C(C(=O)Nc2ccccn2)=C(O)c2ccccc2S1(=O)=O [Piroxicam],0.692,-0.481,-0.933,-0.206
Cn1cc(-c2ccc3nnc(C(F)(F)c4ccc5ncccc5c4)n3n2)cn1,2.24,1.52,1.03,1.45
C[C@H]1O[C@@H](n2cc(F)c(=O)[nH]c2=O)[C@H](O)[C@@H]1O [Doxifluridine],2.11,-1.75,-1.48,-0.423
NC(=O)[C@@H]1CCCN1C(=O)[C@H](Cc1c[nH]cn1)NC(=O)[C@@H]1CCC(=O)N1 [Protirelin],0.938,-0.967,-0.659,-0.189
CCCC[C@@H](C=O)NC(=O)[C@H](CC(C)C)NC(=O)OCc1ccccc1 [Calpeptin],1.35,0.0131,-0.391,0.981

Compound,nucleus area z-score [1],total neurite length per nucleus (z-score) [2],nucleus roundness z-score [3],KCl-induced FOS+/EGR-1+ double-positive nuclei fraction z-score [4]
Cc1ccc(O)c([C@H](CCN(C(C)C)C(C)C)c2ccccc2)c1 [Tolterodine tartrate],-0.00377,-0.382,0.125,-0.253
CC(COc1ccccc1)N(CCCl)Cc1ccccc1 (centres undefined) [Phenoxybenzamine HCl],0.718,0.862,-0.0278,0.5
c1ccc2c(CC3=NCCN3)cccc2c1 [Naphazoline HCl],-0.00916,0.501,0.347,0.52
CN(NC(=O)CC(=O)NN(C)C(=S)c1ccccc1)C(=S)c1ccccc1 [Elesclomol (STA-4783)],0.101,1.67,0.425,0.0282
CCOC(=O)c1cnc2ccc(-c3cncc(NS(=O)(=O)c4ccccc4)c3)cn12,-0.0568,1.2,0.599,0.14
C[N+](C)(C)CCCCCC[N+](C)(C)C [Hexamethonium Bromide],1.24,-0.677,0.0412,0.618
Nc1nc(NC2CC2)c2ncn([C@H]3C=C[C@@H](CO)C3)c2n1 [Abacavir sulfate],0.864,-0.757,-0.925,-1.05
O=C(O)CSCC(=O)NC1CCSC1=O (centres undefined) [Erdosteine],-0.809,1.44,-0.17,1.66
COc1cc2ncnc(Oc3ccc(CC(=O)Nc4cnn(C(C)C)c4)cc3)c2cc1OC,0.465,-0.118,-0.211,-0.274
C=CC(=O)Nc1cc(Nc2nccc(-c3cn(C)c4ccccc34)n2)c(OC)cc1N(C)CCN(C)C,-11.9,-2.55,-4.14,3.62
COc1cc(OC)c(NC(=O)Nc2cc(C)on2)cc1Cl,-0.417,0.46,0.509,1.94
CC[C@H]1OC(=O)C[C@@H](O)[C@H](C)[C@@H](O[C@@H]2O[C@H](C)[C@@H](O[C@H]3C[C@@](C)(O)[C@@H](O)[C@H](C)O3)[C@H](N(C)C)[C@H]2O)[C@@H](CC=O)C[C@@H](C)C(=O)/C=C/C(C)=C/[C@@H]1CO[C@@H]1O[C@H](C)[C@@H](O)[C@@H](OC)[C@H]1OC [Tylosin tartrate],0.264,-0.37,-0.00267,0.059
O=C(c1ccc(C(=O)N2CCC(N3CCCC3)CC2)c(Nc2ccccc2)c1)N1CCC(N2CCCC2)CC1,0.345,1.14,1.51,3.37
CC[C@@H]1/C=C(\C)C[C@H](C)C[C@H](OC)[C@H]2O[C@@](O)(C(=O)C(=O)N3CCCC[C@H]3C(=O)O[C@H](/C(C)=C/[C@@H]3CC[C@H](Cl)[C@H](OC)C3)[C@H](C)[C@@H](O)CC1=O)[C@H](C)C[C@@H]2OC [Pimecrolimus],-0.832,-0.58,-0.651,-0.344
CN(C)CCc1c[nH]c2ccc(Cn3cncn3)cc12 [Rizatriptan Benzoate],-0.328,0.451,0.258,-0.221
COc1ccc(NS(=O)(=O)c2ccc(N)cc2)nn1 [Sulfamethoxypyridazine],0.245,0.852,0.877,0.715
CC1=C(C(=O)O)N2C(=O)[C@@H](NC(=O)[C@H](N)c3ccccc3)[C@H]2SC1 [Cephalexin],-1.61,-0.551,1.56,-0.756
CNC(=O)c1cc(Oc2ccc(NC(=O)Nc3ccc(Cl)c(C(F)(F)F)c3)c(F)c2)ccn1 [Regorafenib (BAY 73-4506)],0.953,-0.0602,0.25,-0.182
